Counter-ions that a name gives are not always drawn. ± gives the standard deviation of the averaged measurements. Some of the results follow. Values are raw readings; no control value is given beside them.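 HeLa cells imaged for ribosome-assembly readouts (ENP1 staining with or without export block, or inducible tagged ribosomal protein reporters); machine learning classified each cell's signal location against solvent (DMSO) controls. Hits exceeded the DMSO false-positive mean by five standard deviations, then were visually confirmed; three biological replicates.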
Key:
[1] = system: HeLa K (ENP1 immunofluorescence, +LMB); experiment: fraction of cells with nucleolar or nucleolar/nucleoplasmic ENP1 signal (MainHitrate); higher = more cells with nucleolar/nuclear readout signal (for ENP1 -LMB: less RNAPI inhibition; for +LMB ENP1 and RP reporters: stronger nuclear/nucleolar retention, i.e. ribosome biogenesis defect); conditions: concentration: 1 µM; treatment time: 6 h; ENP1 +LMB; leptomycin B: 20 nM, last 1.5 h
[2] = system: HeLa K (ENP1 immunofluorescence, no LMB); experiment: as above; conditions: concentration: 1 µM; treatment time: 6 h; ENP1 -LMB; leptomycin B: none
HeLa RPS2-YFP reporter = experiment: fraction of reporter-positive cells with nuclear (nucleolar or nucleolar/nucleoplasmic) RPS2-YFP (MainHitrate); higher = more cells with nucleolar/nuclear readout signal (for ENP1 -LMB: less RNAPI inhibition; for +LMB ENP1 and RP reporters: stronger nuclear/nucleolar retention, i.e. ribosome biogenesis defect); conditions: concentration: 1 µM; treatment time: 6 h
HeLa RPL29-GFP reporter = experiment: fraction of reporter-positive cells with nuclear (nucleolar or nucleolar/nucleoplasmic) RPL29-GFP (MainHitrate); higher = more cells with nucleolar/nuclear readout signal (for ENP1 -LMB: less RNAPI inhibition; for +LMB ENP1 and RP reporters: stronger nuclear/nucleolar retention, i.e. ribosome biogenesis defect); conditions: concentration: 1 µM; treatment time: 6 h

| SMILES | fraction [1] | fraction [2] | fraction of reporter-positive cells with nuclear (HeLa RPS2-YFP reporter) | fraction of reporter-positive cells with nuclear (HeLa RPL29-GFP reporter) |
| --- | --- | --- | --- | --- |
| C=CCOc1ccccc1OCC(O)CNC(C)C (centres undefined) [Oxprenolol HCl] | 0.207 ± 0.3 | 0.998 ± 0.0035 | 0.173 ± 0.2 | 0.297 ± 0.23 |
| CCCCCOC(=O)Nc1nc(=O)n([C@@H]2O[C@H](C)[C@@H](O)[C@H]2O)cc1F [Capecitabine (Xeloda)] | 0.0845 ± 0.057 | 0.9981 ± 0.0034 | 0.11 ± 0.059 | 0.217 ± 0.046 |
| C[C@]12C=CC(=O)C=C1CC[C@@H]1[C@@H]2C(=O)C[C@@]2(C)[C@H]1CC[C@]2(O)C(=O)CO [Prednisone (Adasone)] | 0.0858 ± 0.09 | 0.9985 ± 0.0026 | 0.0899 ± 0.05 | 0.2 ± 0.052 |
| CCn1cc(C(=O)O)c(=O)c2cc(F)c(N3CCNC(C)C3)c(F)c21 (centres undefined) [Lomefloxacin hydrochloride (Maxaquin)] | 0.111 ± 0.15 | 0.992 ± 0.014 | 0.129 ± 0.065 | 0.224 ± 0.063 |
| C[C@@H]1O[C@@H]1P(=O)(O)O [Fosfomycin Tromethamine] | 0.133 ± 0.14 | 0.9985 ± 0.0025 | 0.176 ± 0.18 | 0.273 ± 0.17 |
| COc1ccc2c(c1)C(=O)N(CCc1ccc(S(=O)(=O)NC(=O)NC3CCCCC3)cc1)C(=O)C2(C)C [Gliquidone] | 0.122 ± 0.18 | 0.973 ± 0.046 | 0.132 ± 0.098 | 0.225 ± 0.055 |
| CCOC(=O)c1ncn2c1CN(C)C(=O)c1cc(F)ccc1-2 [Flumazenil] | 0.0404 ± 0.023 | 0.9977 ± 0.004 | 0.0893 ± 0.05 | 0.214 ± 0.051 |
| Cc1nc(-c2ccc(OCC(C)C)c(C#N)c2)sc1C(=O)O [Febuxostat (Uloric)] | 0.0519 ± 0.048 | 0.9987 ± 0.0023 | 0.0691 ± 0.029 | 0.192 ± 0.047 |
| CN(Cc1cc(Br)cc(Br)c1N)C1CCCCC1 [Bromhexine HCl] | 0.0719 ± 0.1 | 0.99 ± 0.018 | 0.133 ± 0.11 | 0.188 ± 0.077 |
| CO[C@H]1C[C@@H]2CC[C@@H](C)[C@@](O)(O2)C(=O)C(=O)N2CCCC[C@H]2C(=O)O[C@H]([C@H](C)C[C@@H]2CC[C@@H](OC(=O)C(C)(CO)CO)[C@H](OC)C2)CC(=O)[C@H](C)/C=C(\C)[C@@H](O)[C@@H](OC)C(=O)[C@H](C)C[C@H](C)/C=C/C=C/C=C/1C [Temsirolimus (Torisel)] | 0.17 ± 0.08 | 0.9974 ± 0.0044 | 0.223 ± 0.17 | 0.305 ± 0.042 |
| COc1c(N2C[C@@H]3CCCN[C@@H]3C2)c(F)cc2c(=O)c(C(=O)O)cn(C3CC3)c12 [Moxifloxacin hydrochloride] | 0.0633 ± 0.02 | 0.9969 ± 0.0053 | 0.0909 ± 0.073 | 0.201 ± 0.028 |
| COc1ccc([C@H]2CNC(=O)C2)cc1OC1CCCC1 [S-(+)-Rolipram] | 0.0981 ± 0.15 | 0.997 ± 0.0052 | 0.0929 ± 0.038 | 0.227 ± 0.089 |
| Cc1cccc(C)c1OCC(C)N (centres undefined) [Mexiletine HCl] | 0.0697 ± 0.1 | 0.986 ± 0.025 | 0.123 ± 0.078 | 0.209 ± 0.062 |
| C[C@@H]1CCC[C@H](C)N1NC(=O)c1ccc(Cl)c(S(N)(=O)=O)c1 [Clopamide] | 0.0785 ± 0.064 | 0.996 ± 0.0069 | 0.162 ± 0.15 | 0.269 ± 0.17 |
| Clc1ccc2c(c1)C(N1CCNCC1)=Nc1ccccc1O2 [Amoxapine] | 0.0784 ± 0.12 | 0.99 ± 0.017 | 0.133 ± 0.12 | 0.209 ± 0.07 |
| CC(=O)Oc1ccc(C(c2ccc(OC(C)=O)cc2)c2ccccn2)cc1 [Bisacodyl] | 0.0599 ± 0.076 | 0.983 ± 0.03 | 0.11 ± 0.1 | 0.201 ± 0.048 |
| Nc1nc(NC2CC2)c2ncn([C@H]3C=C[C@@H](CO)C3)c2n1 [Abacavir sulfate] | 0.117 ± 0.17 | 0.988 ± 0.02 | 0.121 ± 0.095 | 0.201 ± 0.079 |
| C#C[C@]1(O)CC[C@H]2[C@@H]3CCc4cc(OC)ccc4[C@H]3CC[C@@]21C [Mestranol] | 0.118 ± 0.16 | 0.993 ± 0.013 | 0.113 ± 0.088 | 0.227 ± 0.057 |
| Cc1cc(C2CCCCC2)n(O)c(=O)c1 [Ciclopirox ethanolamine] | 0.0982 ± 0.15 | 0.987 ± 0.023 | 0.136 ± 0.13 | 0.207 ± 0.051 |
| CCCc1nc2c(C)cc(-c3nc4ccccc4n3C)cc2n1Cc1ccc(-c2ccccc2C(=O)O)cc1 [Telmisartan (Micardis)] | 0.0875 ± 0.1 | 0.998 ± 0.0034 | 0.0875 ± 0.06 | 0.205 ± 0.067 |
| C[N+](C)(C)CCOC(N)=O [Carbachol] | 0.0864 ± 0.082 | 0.9978 ± 0.0038 | 0.203 ± 0.23 | 0.302 ± 0.28 |

Record cards, as listed above. Order of values: fraction [1] | fraction [2] | fraction of reporter-positive cells with nuclear (HeLa RPS2-YFP reporter) | fraction of reporter-positive cells with nuclear (HeLa RPL29-GFP reporter)
`C[C@@H]1O[C@@H]1P(=O)(O)O` [Fosfomycin Tromethamine] as listed: 0.133 ± 0.14 | 0.9985 ± 0.0025 | 0.176 ± 0.18 | 0.273 ± 0.17
`C=CCOc1ccccc1OCC(O)CNC(C)C` (centres undefined) [Oxprenolol HCl] as listed: 0.207 ± 0.3 | 0.998 ± 0.0035 | 0.173 ± 0.2 | 0.297 ± 0.23
